Tested on: PC9 cells
Assay: Phosphotyrosine proteomics (phosphopeptide immunoprecipitation, nano-LC-MS/MS) with erlotinib
Type: cell-based, human
Conditions: 1 μM, 1 h vs DMSO

C#Cc1cccc(Nc2ncnc3cc(OCCOC)c(OCCOC)cc23)c1 [Erlotinib, erlotinib]
unique phosphotyrosine sites significantly perturbed: 66 | unique proteins with significantly perturbed phosphotyrosine sites: 35
